Assay results as given in PubChem BioAssay AID1347075 (National Center for Advancing Translational Sciences (NCATS), 2019).
Where “and” joins values, the source holds several entries; their conditions need not be identical. Equal entries are not always repeated. Among all 400,000 compounds or so, about 5,500 (1.4%) were called active. Inconclusive results, whose numbers are uncertain, are shown with a selection of clear calls. Calls come from the whole dose curve; as a rule, active = well fitted cell-killing curve with a large enough effect; inconclusive = small, poorly fitted or top-dose-only effect, or effect the other way; inactive = flat fitted curve, though single readings scatter. Where the call is inconclusive, the potency comes from a doubtful curve fit.

Assay: qHTS assay for MDR1-selective chemotherapeutics: Primary screen using the parental adenocarcinoma cell KB-3-1; note: nearly all actives have a fitted effect of over 60% in size
Settings: KB-3-1 viability, CellTiter-Glo ATP luminescence, 72 h; activity change, negative = cytotoxic: at 46.1 µM (top of the series)
How it was run: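 KB-3-1 parental drug-naive adenocarcinoma cells in DMEM/10% FBS, incubated 72 h at 37 C with pin-transferred compounds across a concentration series. Viability by CellTiter-Glo luminescence; concentration-response curves fitted after normalization.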
% is set by controls: 0 for no effect and ±100 for the full control effect; potency is the fitted concentration of half-maximal effect.

| Structure (SMILES) | Potency | activity change, negative = cytotoxic |
| --- | --- | --- |
| COc1ccc(CCN2C(=S)N(c3ccc(Cl)cc3)C(=O)C2CC(N)=O)cc1OC (configuration not stated) | inconclusive: 29.1 µM [cytotoxic, single point] | – |
| CCc1ccc(OCC(=O)Nc2ccc3oc(-c4ccc(OC)cc4)nc3c2)cc1 | inconclusive: 25.9 µM [cytotoxic, single point] | – |
| CN(C1=C(NC(=O)c2ccc(Cl)cc2)C(=O)c2ccccc2C1=O)c1ccccc1 | inconclusive: 20.6 µM [cytotoxic, single point] | – |
| S=c1[nH]nc(-c2ccccc2)n1C1C=CCCC1 (configuration not stated) | inactive | – |
| COc1cc(-c2noc(C)c2C#Cc2nccn2C)cc(OC)c1OC | inconclusive: 18.4 µM [cytotoxic, single point] and active: 9.2 µM | – |
| Cc1nnc(-c2cccc(Br)c2)c2cn(-c3ccc(Br)cc3)nc12 | inconclusive: 29.1 µM [cytotoxic, single point] | – |
| Cc1ccc(NC(=O)c2ccccc2OCC(=O)Nc2ccccc2F)cc1S(=O)(=O)N(C)C | active: 5.17 µM | – |
| c1ccc2[nH]c(-c3ccc4c(c3)OCO4)nc2c1 | inconclusive: 9.2 µM [cytotoxic, partial curve, poor fit] | – |
| CCOC(=O)c1c(-c2ccc(-c3ccccc3)cc2)csc1NC(=O)CCC(=O)O | inconclusive: 20.6 µM [cytotoxic, partial curve, poor fit] | – |
| Cn1c(=O)c(C(=O)COc2ccc(F)cc2Cl)c(N)n(Cc2ccccc2)c1=O | inconclusive: 32.6 µM [cytotoxic, single point] | – |
| Cn1c(N2CCN(C(c3ccccc3)c3ccccc3)CC2)nc2c1c(=O)[nH]c(=O)n2C | inconclusive: 29.1 µM [cytotoxic, single point] | – |
| CCC(C(=O)NCCc1cc(OC)ccc1OC)n1nc(C)c2sc3ccccc3c2c1=O (configuration not stated) | inconclusive: 29.1 µM [cytotoxic, single point] | – |
| COc1cccc(-c2nc(N3CC(C)CC(C)C3)c3ccccc3n2)c1O (configuration not stated) | inconclusive: 2.31 µM [cytotoxic, partial curve, poor fit] | – |
| CC1CCCCC1NC(=O)COCc1cc(-c2cccs2)on1 (configuration not stated) | inconclusive: 32.6 µM [cytotoxic, single point] | – |
| Cc1cc(C)nc(N/N=C/C2=C(N3CCOCC3)C(=C/c3ccccc3)/CC2)n1 | inconclusive: 32.6 µM [cytotoxic, single point] | – |
| Cc1ccsc1C(=O)NCCc1nnc2ccccn12 | inactive | – |
| O=C(Cn1c(-c2cscn2)nc2ccccc21)Nc1ccccc1F | inconclusive: 0.0366 µM [cytotoxic, full curve] | – |
| CCC1=NN(C(=O)c2ccc(Br)cc2)C(O)(c2ccccc2)C1 (configuration not stated) | inconclusive: 25.9 µM [cytotoxic, single point] | – |
| Nc1nc(-c2ccccc2)c(-c2ccccc2)o1 | inactive | – |
| CCc1ccc(/C=c2\s/c(=C\C(=O)C(C)(C)C)[nH]c2=O)cc1 | inconclusive: 29.1 µM [cytotoxic, single point] | – |
| CCOc1ccc(CCN2C(=S)N([C@@H](CC(C)C)CN3CCC[C@@H]3CN3C(=S)NC[C@@H]3Cc3ccc(O)cc3)C[C@@H]2CC(C)C)cc1 | inconclusive: 29.1 µM [cytotoxic, single point] | – |
| N/C(=N/OC(=O)c1ccccc1Cl)c1ncc([N+](=O)[O-])s1 | active: 23.1 µM | – |
| Cc1ccc(C(=O)CSc2nnc(CNc3nc(-c4ccccc4)cs3)n2C)cc1 | inactive | – |

| Structure (SMILES) | Potency | activity change, negative = cytotoxic |
| --- | --- | --- |
| CN=c1scc(-c2ccc(OC)cc2)n1/N=C(\C)c1cccnc1 | inconclusive: 16.4 µM [cytotoxic, single point] | – |
| CCCC(NC(=O)COc1cc2c(c3oc(=O)cc(C)c13)CCC(C)(C)O2)C(=O)O (configuration not stated) | inconclusive: 20.6 µM [rising, single point] | – |
| Cc1ccc2c(c1)C(O)(C1COC(C)(C)CC1=O)C(=O)N2C (configuration not stated) | inconclusive: 29.1 µM [cytotoxic, single point] | – |
| COC(C[C@@H](O)C[C@@H](O)COCc1ccccc1)OC | inactive | – |
| Cc1cccc(-n2ncc3c(NNC(=O)c4ccco4)ncnc32)c1 | inactive | – |
| Cc1nn(-c2ccccc2)c(Cl)c1/C=N/NC(=O)c1ccco1 | inconclusive: 9.2 µM [rising, partial curve] | – |
| O=C(/C=C/c1cccc(Cl)c1)NNC(=O)c1ccncc1 | inconclusive: 18.4 µM [cytotoxic, partial curve] | – |
| Cc1cccc(C(=O)OCC(=O)Nc2ccc3c(c2)OCCO3)c1O | inconclusive: 14.6 µM [rising, partial curve] | – |
| O=c1[nH]c(=S)ccn1C1OC(CO)C(O)C1O (configuration not stated) | active: 9.2 µM | – |
| O=C(NCc1ccccc1)c1cccc(NC(=O)c2ccco2)c1 | active: 10.3 µM | – |
| Cc1sc2nc(CN3CCOCC3)nc(Cl)c2c1C | inconclusive: 29.1 µM [cytotoxic, single point] | – |
| CN=C1S/C(=C\c2ccc(O)c(Br)c2)C(=O)N1C | inconclusive: 23.1 µM [cytotoxic, single point] | – |
| O=[N+]([O-])c1ccc(NC(=S)NCc2ccc(F)cc2)cc1 | inconclusive: 23.1 µM [cytotoxic, single point] | – |
| COc1cc(NC(=O)c2ccc(Cl)cc2)c(OC)cc1NC(=O)CN1CCCCC1 | inconclusive: 18.4 µM [cytotoxic, single point] | – |
| Cc1ccc(-c2cc(C(=O)N3CCC(C)CC3)c3ccccc3n2)cc1 | inconclusive: 29.1 µM [cytotoxic, single point] | – |
| Cc1cc(C)c(-n2[nH]nnc2=S)c(C)c1 | inactive | – |
| COC(=O)[C@]1(Cc2ccccc2)N[C@H](c2ccc(SC3CCCCC3)c(OC)c2)[C@@H]2C(=O)N(C)C(=O)[C@@H]21 | inconclusive: 20.6 µM [cytotoxic, single point] | – |
| CCN(CC)S(=O)(=O)c1ccc2oc(SCC3CN=C(c4ccc(OC)cc4)S3)nc2c1 (configuration not stated) | inconclusive: 18.4 µM [cytotoxic, partial curve] | – |
| NC(=O)/C=C\C(=O)Nc1cccc(C(F)(F)F)c1 | inactive | – |
| CCc1nnc(NC(=O)CSc2nnc(-c3ccccc3O)n2-c2ccc(C)cc2)s1 | inconclusive: 16.4 µM [cytotoxic, single point] | – |
| CC(C)(C)n1nnnc1C(c1cccs1)N1CCN(C/C=C/c2ccccc2)CC1 (configuration not stated) | inconclusive: 29.1 µM [cytotoxic, partial curve, poor fit] | – |
| O=C(Oc1c(CN2CCOCC2)cc(Cl)c2cccnc12)c1cccs1 | inconclusive: 20.6 µM [cytotoxic, partial curve] | – |
| O=C1CC(c2ccccc2)Cc2nc3ncnn3cc21 (configuration not stated) | inconclusive: 20.6 µM [cytotoxic, single point] | – |

Two of these compounds, set out differently.
Structure (SMILES)	Potency	activity change, negative = cytotoxic
CCCC(NC(=O)COc1cc2c(c3oc(=O)cc(C)c13)CCC(C)(C)O2)C(=O)O (configuration not stated)	inconclusive: 20.6 µM [rising, single point]	–
Cc1ccc2c(c1)C(O)(C1COC(C)(C)CC1=O)C(=O)N2C (configuration not stated)	inconclusive: 29.1 µM [cytotoxic, single point]	–

More compounds.

| Structure (SMILES) | Potency | activity change, negative = cytotoxic |
| --- | --- | --- |
| O=C(Nc1nc(-c2ccccc2)c(C(=O)c2ccccc2)s1)c1ccc(S(=O)(=O)N2CCCCC2)cc1 | inconclusive: 16.4 µM [cytotoxic, partial curve, poor fit] | – |
| NS(=O)(=O)c1cnccc1Nc1ccc(Cl)c(Cl)c1 | inconclusive: 23.1 µM [rising, single point] | – |
| Cc1cccc(-n2c(-c3ccco3)nc3c(cnn3-c3ccc(F)cc3)c2=O)c1 | inconclusive: 9.2 µM [cytotoxic, partial curve] | – |
| N#CCCn1cc(CNCc2cccnc2)c(-c2ccccc2)n1 | inactive | – |
| COc1ccc(CCn2c(=N)c(C(=O)NCc3ccco3)cc3c(=O)n4cccc(C)c4nc32)cc1 | inconclusive: 20.6 µM [cytotoxic, single point] | – |
| S=C(NCCc1ccccc1)N1CCN(Cc2ccc(Cl)c(Cl)c2)CC1 | inconclusive: 11.6 µM [cytotoxic, partial curve, poor fit] | – |
| Clc1ccccc1CN1CCN(/N=C/C=C/c2ccco2)CC1 | inactive | – |
| CCOc1c(OC(C)=O)ccc(/C=C/c2ccc3cccc(OC(C)=O)c3n2)c1[N+](=O)[O-] | inconclusive: 29.1 µM [cytotoxic, single point] | – |
| COc1ccc(S(=O)(=O)N2CCC(C(=O)NN3CCCCC3)CC2)cc1OC | inactive | – |
| O=C(O)Cn1nnnc1SCC(=O)Nc1ccc(F)cc1F | inactive | – |
| O=C(O)c1cccc2c1Cc1cc([N+](=O)[O-])ccc1-2 | inconclusive: 20.6 µM [cytotoxic, single point] | – |
| CCOC(=O)N1CCN(C(=O)c2ccc3c(c2)N(Cc2ccccc2)CCS3)CC1 | inconclusive: 5.8 µM [cytotoxic, partial curve, poor fit] | – |
| CCNc1nc(NC(C)(C)C)nc(N2CCCCC2)n1 | inconclusive: 29.1 µM [cytotoxic, single point] | – |
| O=C(NCC1CCCCC1)c1csc([C@@H]2C[C@H](O)[C@@H](CO)O2)n1 | inconclusive: 29.1 µM [cytotoxic, single point] | – |
| COCCn1c(C)cc(C2=NNC(=Nc3ccccc3F)SC2)c1C | active: 18.4 µM | – |
| CC(=O)N1N=C(c2ccc(C(C)(C)C)cc2)OC1(C)C | inactive | – |
| COc1ccc(-c2c(-c3ccc(OC)c(F)c3)c3ccccc3n2C)cc1 | inconclusive: 14.6 µM [cytotoxic, single point] | – |
| Cc1ccc(NC(=O)c2nc(S(=O)(=O)Cc3ccccc3)ncc2Cl)cc1 | active: 13 µM | – |
| C/C(=N/NC(=O)c1sc(NS(=O)(=O)c2ccc(C)cc2)nc1C)c1sc(N)nc1C | inconclusive: 1.16 µM [rising, full curve, poor fit] | – |
| CCN(CC)CCOCCOc1ccc(Cl)c2ccccc12 | – | inconclusive: -11.5% |
| CCOC(=O)c1c(C)c(C(=O)Nc2cc(F)ccc2F)c(C)n1C | active: 10.3 µM | – |
